The campaign covered roughly 52,000 sequences. About 210 (0.4%) were called active.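 The calls were made as follows: active = gene whose silencing raises cell survival under the drug, median off-target-corrected z-score across its silencing RNAs 2 or more; inactive = the rest.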 This is one part of the list.

The nature of the assay: Resistance to Poly (ADP-Ribose) Polymerase inhibitor: Gene Identification via Genome-wide siRNA Screen. The conditions noted are these: mouse BRCA2 R2336H ES cells, olaparib, CellTiter-Glo viability; stronger effect = higher value. In short, it runs like this:
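Genome-wide siRNA screen (3 siRNAs/gene, 20 nM) in mouse ES cells carrying hypomorphic BRCA2 R2336H; olaparib 500 nM added 48 h post-transfection, CellTiter-Glo viability 72 h later. Normalized to plate-median negative control; MAD z-scores, gene median, seed-adjusted.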
On the technique in general: ATP-based viability assays read luminescence as a measure of living cells.
Take GGUAAAAGUGGAACAAGAGTT against Irak3: the z-score was inactive: 0.596.

For the sequence “GGAUCAAAUCAAGAAGAUGTT against 2210412K09Rik”, the z-score was inactive: -0.814.

On to GCAAGUACCAUGGACCAUGTT against Mbp, for which the z-score is inactive: 1.46.

For the sequence GGUGCAAUGCAAACUCUACTT against Cldn19, the z-score was inactive: -1.8.

For the sequence GGCACCAUUCUGAAUCAGATT against Ddx50, the z-score is inactive: -0.952.

As to GCACAACAUAAGAAGGUGGTT against Klk14, the z-score was inactive: 2.45.

For GGACACAACUCAUUUUCAGTT against Prg3, the z-score was inactive: 0.45.

As to “CCUAGAGAGACAUAUUGUUTT against E130203B14Rik”, the z-score is inactive: -0.888.

Turning to GGACUUCAAGGAUAGUGAGTT against Osm, the z-score is inactive: 0.178.

As to GGAUCUUCGUCAACAAGCATT against Zmynd10, the z-score was inactive: 0.879.

On to CCAAGGACGGCCUUACACUTT against D2Wsu81e, for which the z-score is inactive: -0.136.

Take “GGAUUCUGCCUGAUCAAUGTT against 1110008F13Rik”: the z-score was inactive: -1.08.

Regarding CGCGGAGUCACUACUAGAGTT against BC027373, the z-score was inactive: 0.228.

With CGAGAAUACAUUGAGGAGUTT against Hook2, the z-score was inactive: -0.29.

Consider GGUGGCAGAGUUGUUAUUUTT against Ppp2r2d, for which the z-score was inactive: 2.2.

As for GCUCACCAUCAAAUCAGUGTT against Ceacam14, the z-score is inactive: -1.53.

CCAGACCUAUACUAUGAAUTT against Ttc15: the z-score was inactive: -0.225.

Consider GCCAGGCAUCUACUUCAUUTT against Pep4, for which the z-score is inactive: 2.68.

As for GCAAGUAAAUAUGAGAACATT against Plxna4, the z-score is inactive: -0.0479.

Take CCGGUUCAGAUUUGGCUAATT against Icam4: the z-score was inactive: -0.517.

As to GUAUGUUGACAUUUGCCUGTT against Olfr113, the z-score is inactive: 0.603.

Take GCAGGGAGUGGUUUUAUGATT against Hoxb9: the z-score was inactive: -1.08.

GCCGUCUCUGUGUCACAAATT against Sirt1: the z-score is inactive: -1.7.

With “GGACACAUUAUCCAGUGACTT against A830041P22Rik”, the z-score is inactive: 1.01.

With GGCUUUUAUUGUCCUGAAUTT against Sah, the z-score was inactive: 0.332.

In the case of GGCCAAACACGUAUCUUUGTT against Snta1, the z-score was inactive: 0.329.

GGAGACGAAGUGCUUAGGCTT against Gmip: the z-score was inactive: 0.781.

Consider GGAGUGUUUUACCUCUUUCTT against Nudt13, for which the z-score is inactive: -2.5.

As for GUCAUCAUGAACCAAGAGATT against Olfr713, the z-score is inactive: -0.171.

As to “GGCUGAGAAUUACUUAAACTT against 1700019E19Rik”, the z-score was inactive: 0.374.

As to CCAUCUCAUUCCUUACCAGTT against MP4, the z-score is inactive: -1.87.

For the sequence GGCCCUGCCUACUAUCUAUTT against B3gat3, the z-score was inactive: 1.01.

On to AUAUGUCUGUUUCUGCGAATT against V1rh2, for which the z-score was inactive: -0.362.

CCUGUACUCUAUAUUCUGUTT against Pld2: the z-score was inactive: 0.118.

CGACUUCACCUUAUUCCUGTT against BC018399: the z-score was inactive: 0.24.

Regarding CCGCUAACUUGAUUGACGATT against Tcte1, the z-score was inactive: -0.0189.

For the sequence GCUCUCAGUGACCUUAGAATT against Dnaja1, the z-score is inactive: 0.119.

With GGCAAUUUUGGACAAACAGTT against Amy1, the z-score is inactive: 1.5.

Regarding CCAUGCAACUUACCAAAGATT against Lrrc5, the z-score is inactive: -0.0693.

Regarding GGUAAAAAGCCUUAUCAGUTT against Zfp146, the z-score is inactive: 0.725.

On to GGAACAAAGAAGUAAUGUATT against Tbk1, for which the z-score is inactive: 0.188.

For GGUGAUUGUCUUGAUAUCCTT against Olfr1213, the z-score was inactive: 0.0445.

For GGCUUCCUGUUGGCAGUCATT against Olfr1413, the z-score was inactive: -1.31.

With “GGAUGAUCAUUCUAGCUGUTT against 4921522K05Rik”, the z-score is inactive: 0.0935.

In the case of “GGACUUGAAACUUCUGGAUTT against 2310041H06Rik”, the z-score is inactive: 0.864.

Regarding GGAACUGGAAAGGAAUCGCTT against Dpp6, the z-score was inactive: 0.624.

As to AAACCAUACUUGAAAGAAATT against Olfr943, the z-score was inactive: -0.095.

As to GCAUUCCAACGGAUUUAAUTT against Dag1, the z-score was inactive: 0.257.

As to “GGUCCUUAACCGCUAUGCATT against 9530027K23Rik”, the z-score is inactive: 0.514.

Turning to CCUCGAUUAUAGCAAUACUTT against Slc16a14, the z-score was inactive: -0.578.

As to “GGCUAUUAACAUCUCAGUUTT against 4930418P06Rik”, the z-score was inactive: -1.12.

Turning to GGAAAAUAAGCAUAGUGAUTT against Spesp1, the z-score is inactive: 0.159.

As to GGGAAGUCACUGAAGCCUGTT against Akr7a5, the z-score was inactive: -0.538.

Turning to GGAAUUUCUGUGGUGGAGATT against Ddit4, the z-score is inactive: 0.0089.

As to CGUUGAUCUACGUUAUAAATT against Car6, the z-score is inactive: -0.1.

AGAGGAAGCUCGAAAACGGTT against U2af1-rs2: the z-score is inactive: -1.4.

On to CCCGGAGAAGUUUUUAUCATT against Sfpq, for which the z-score is inactive: -0.0657.

On to GGGCAAUUUGGACUGUUUUTT against Jam3, for which the z-score is inactive: 0.27.

As to GGUGUGGGUGACAAGGUUATT against Ecgf1, the z-score is inactive: 0.833.

In the case of CGAUGCUGAUGUAUCAAAGTT against Phkb, the z-score is inactive: 0.316.

Consider GGAGCACAGAAAACACAAGTT against Cspg3, for which the z-score was inactive: 0.361.

GGAACUCACUCUAUCUUUUTT against Gpr77: the z-score is inactive: 0.393.

As for GCCCAUUGAAGAAAAACCCTT against Arid4b, the z-score is inactive: 0.661.

For GCCAGUUAACUUUAGGGAGTT against Ywhaz, the z-score was inactive: -0.774.

In the case of GGGUCAGAAUAUUUGCUUCTT against Olfr325, the z-score was inactive: 0.133.

For the sequence “GCUAAUGGACAGGUAAAUATT against 2010005A06Rik”, the z-score was inactive: 0.215.

For the sequence GCUCAUUUAUUCAGGAAGCTT against Zbtb9, the z-score was inactive: 0.825.

With “GGGAGCUAAGAAGAUUCAUTT against 0610009K11Rik”, the z-score is inactive: 2.78.

For the sequence GGAAGAGCUGCUGAAUUCATT against Mthfd2, the z-score was inactive: 0.832.

Regarding GGUGGAUUUAGUUUCUGCATT against C1d, the z-score is inactive: 0.279.

Turning to GGACGACUACAGCUAUGACTT against Klk1, the z-score was inactive: -0.359.

For “GGACUGUCAGUACUGUCAATT against E030025L21Rik”, the z-score was inactive: -0.201.

For GCAAUAGAAAAGUCCGUGGTT against Zfyve20, the z-score was inactive: 0.359.

As for GGAGUUUGUGAAUAAAUGUTT against Map2k2, the z-score was inactive: -1.05.

For the sequence GGACAAAUUCCUUCUUUUCTT against Olfr651, the z-score was inactive: 0.04.

Regarding “GGUCCAGAGAAUGUUAUUATT against 9530002K18Rik”, the z-score was inactive: -0.66.

Regarding GGUGGAAAGUGCAUAGACATT against Notch3, the z-score is inactive: 0.0686.

On to GGAACUGGAAAGAGUUCUUTT against Foxo1, for which the z-score is inactive: 0.00816.

With GGGAGGAAGUGUUCUUCUCTT against Psg18, the z-score is inactive: 0.154.

In the case of GGAUGUGUUACUUACCAAATT against Mtap4, the z-score is inactive: -0.294.

Turning to GCGGAUCUCUGAUUUAUAUTT against Traf5, the z-score is inactive: 0.147.

Regarding CCCUUUGCUUAACCUUGCATT against Olfr1258, the z-score was inactive: 1.02.

Turning to “CCACUGUGAGACACAUAAGTT against 4933405I11Rik”, the z-score was inactive: -0.857.

Regarding GGCCUACUUCCUACUCAAATT against Tbx10, the z-score was inactive: -0.176.

Regarding GGAGGUGAAGCUCAUUGUCTT against Ildr1, the z-score was inactive: 0.00568.

With GGCCACUGACCAUGAAGAATT against Gata2, the z-score is inactive: -2.17.

For the sequence GGCUCAUCCAAAAUAGAGGTT against Napa, the z-score is inactive: -0.261.

On to GGCUUCUUCGCUCAGAAAUTT against Dnase2a, for which the z-score is inactive: 0.959.

As for GGUCAUGGAUGUCACAGAGTT against Map4k6, the z-score was inactive: -0.774.

On to GUGCAGAUACUACCUACAATT against Olfr132, for which the z-score is inactive: -2.43.

For CGACCAGAGUUAUCUGAAUTT against Ctf2, the z-score was inactive: 0.21.

As for GCACAGUGUAACUUAGGGCTT against Cenpb, the z-score is inactive: 1.48.

“GGGUGUGCUUCAUAUCAAATT against 2210407C18Rik”: the z-score was inactive: 0.0134.

For the sequence GCUCACAAGAUGGUUCGGGTT against Rab3il1, the z-score is inactive: 0.678.

For “GGUCUCCUACUUCCACUGCTT against 4833416I09Rik”, the z-score was inactive: -0.794.

For the sequence CCGACCUGAAGACCUUACATT against Tmem18, the z-score was inactive: 0.226.

For “GGCGAAAUCUGCUAGAGUATT against 2700055K07Rik”, the z-score is inactive: 0.54.

Regarding GGAAUACAAAAAUUACCUGTT against Bdnf, the z-score was inactive: 0.816.

GGAGAGGAAGAUGAUAAAATT against Cdx4: the z-score is inactive: -1.79.

GCGAUGAAGAGAACUUAAGTT against Pts: the z-score is inactive: 0.00581.

For the sequence “GCGAUCGCCAAAAUCCGGUTT against 2810004N20Rik”, the z-score is inactive: 0.542.

Consider GCAUUUUAGCCUUCGGACATT against C9, for which the z-score is inactive: 0.183.

For the sequence GCUACACAACUCUCCAUUATT against Crtam, the z-score was inactive: -0.882.

Regarding GCACAUACAGCUUAACAAATT against Nktr, the z-score is inactive: 0.455.

As for “GGCAGUGAGUGAGUCACAGTT against 4932411E22Rik”, the z-score is inactive: -2.24.

For the origin of these results see PubChem BioAssay AID1347423 (Functional Genomics Laboratory (NCATS/FGL), 2020).
